Results are given in words; binding and its absence hold for the method and conditions named. For some of these results: A result given as binding can be weak or reduced; the word gives no strength. For some of these results: Binding seen in cells or lysates may run through a third protein. For some of these results: Sequences can lack the tags named with a protein. One block for each molecule: values may come before it.
Key:
[1] = molecular target: T1, KMP-11 (yeast two-hybrid fusion) (Trypanosoma brucei) (UniProt P69301); test: two-hybrid; Gal4 system; prey in pGADT7 (AH109), bait in pGBKT7 (Y187), mated, spotted on SD-Leu-Trp and SD-His-Leu-Trp plates (Fig. 2B)
T1 sequence: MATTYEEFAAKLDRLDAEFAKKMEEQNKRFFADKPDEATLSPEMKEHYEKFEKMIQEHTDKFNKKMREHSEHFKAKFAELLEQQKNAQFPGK

By UniProt entry, the sequences of proteins in these tests, tags left out. Where a name states a change or a piece, a line headed by the entry shows the natural chain unless it says otherwise.
UniProt Q381V1: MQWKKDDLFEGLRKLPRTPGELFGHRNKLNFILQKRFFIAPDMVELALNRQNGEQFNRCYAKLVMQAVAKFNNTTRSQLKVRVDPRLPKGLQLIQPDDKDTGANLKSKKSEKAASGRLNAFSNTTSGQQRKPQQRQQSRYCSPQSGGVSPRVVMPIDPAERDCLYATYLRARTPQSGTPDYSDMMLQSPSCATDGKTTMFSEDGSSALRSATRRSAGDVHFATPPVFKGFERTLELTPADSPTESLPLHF
UniProt Q586F4: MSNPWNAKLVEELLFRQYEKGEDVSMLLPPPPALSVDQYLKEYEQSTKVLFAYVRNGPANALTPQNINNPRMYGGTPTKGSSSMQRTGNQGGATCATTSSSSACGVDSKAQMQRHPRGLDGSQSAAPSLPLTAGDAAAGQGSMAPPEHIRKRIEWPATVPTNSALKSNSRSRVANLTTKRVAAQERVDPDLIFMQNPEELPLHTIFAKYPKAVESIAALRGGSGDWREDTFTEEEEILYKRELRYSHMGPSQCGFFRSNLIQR
UniProt Q57ZI5: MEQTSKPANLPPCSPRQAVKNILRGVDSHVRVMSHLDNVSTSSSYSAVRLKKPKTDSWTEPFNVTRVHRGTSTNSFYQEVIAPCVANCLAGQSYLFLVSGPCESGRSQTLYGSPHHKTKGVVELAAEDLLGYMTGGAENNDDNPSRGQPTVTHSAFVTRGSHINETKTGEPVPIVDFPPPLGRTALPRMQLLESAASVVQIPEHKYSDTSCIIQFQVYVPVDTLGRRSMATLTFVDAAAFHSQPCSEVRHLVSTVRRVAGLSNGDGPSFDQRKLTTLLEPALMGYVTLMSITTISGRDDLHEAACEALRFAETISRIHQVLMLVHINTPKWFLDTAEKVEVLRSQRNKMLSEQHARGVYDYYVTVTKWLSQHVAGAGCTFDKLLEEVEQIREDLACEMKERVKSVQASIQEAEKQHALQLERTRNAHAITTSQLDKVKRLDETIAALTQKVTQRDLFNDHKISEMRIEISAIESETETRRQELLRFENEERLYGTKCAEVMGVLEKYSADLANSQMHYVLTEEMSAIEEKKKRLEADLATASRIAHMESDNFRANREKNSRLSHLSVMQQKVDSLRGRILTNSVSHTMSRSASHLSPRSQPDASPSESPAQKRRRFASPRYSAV

[2] = molecular target: T2, GST-KMP-11 (Trypanosoma brucei) (UniProt P69301); test: pull-down; purified GST-fusion proteins bound to glutathione Sepharose beads incubated with in vitro translated TbAUK1-HA, washed six times; Western blot with anti-HA mAb; only the target purified
T2 sequence: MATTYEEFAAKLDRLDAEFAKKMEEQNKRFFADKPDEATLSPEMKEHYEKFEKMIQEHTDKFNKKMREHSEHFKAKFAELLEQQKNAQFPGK

[3] = molecular target: T3, KMP-11-HA (Trypanosoma brucei) (UniProt P69301); test: co-IP; procyclic cell lysate (25 mM Tris-Cl pH 7.6, 100 mM NaCl, 1% Nonidet P-40, 1 mM dithiothreitol) with anti-HA mAb or anti-Tubulin mAb at 4°C, protein G Sepharose; blot with anti-Protein C mAb or anti-HA mAb
T3 sequence: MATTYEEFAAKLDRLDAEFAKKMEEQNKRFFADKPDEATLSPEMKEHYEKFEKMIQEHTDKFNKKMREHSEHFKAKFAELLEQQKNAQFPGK

[4] = molecular target: TbCPC2 (yeast two-hybrid fusion) (Trypanosoma brucei) (UniProt Q381V1); test: two-hybrid; Gal4 system; prey in pGADT7 (AH109), bait in pGBKT7 (Y187), mated, spotted on SD-Leu-Trp and SD-His-Leu-Trp plates (Fig. 2B)
[5] = molecular target: TbCPC1 (yeast two-hybrid fusion) (Trypanosoma brucei) (UniProt Q586F4); test: as above
[6] = molecular target: α-tubulin (T. brucei (endogenous in procyclic cells)); test: co-IP; procyclic cell lysate (25 mM Tris-Cl pH 7.6, 100 mM NaCl, 1% Nonidet P-40, 1 mM dithiothreitol) with anti-HA mAb or anti-Tubulin mAb at 4°C, protein G Sepharose; blot with anti-Protein C mAb or anti-HA mAb

binding [1]: no binding
Molecule: TbAUK1 (yeast two-hybrid fusion) (Trypanosoma brucei) (enzyme)

binding [2]: no binding
Molecule: TbAUK1-HA (in vitro translated) (Trypanosoma brucei) (enzyme)

binding [3]: no binding
Molecule: TbAUK1-PTP (Trypanosoma brucei) (enzyme)

binding [4]: binds
Molecule: TbCPC1 (yeast two-hybrid fusion) (from UniProt Q586F4)

binding [4]: binds
binding [5]: binds
Molecule: TbKIN-B (yeast two-hybrid fusion) (from UniProt Q57ZI5)

binding [6]: binds
B1: KMP-11-HA (protein, UniProt P69301 1-92)
chain: MATTYEEFAAKLDRLDAEFAKKMEEQNKRFFADKPDEATLSPEMKEHYEKFEKMIQEHTDKFNKKMREHSEHFKAKFAELLEQQKNAQFPGK
